Data reported in the supplement of paper PMC4604168 (melanoma cell lines).
This is one part of the list. Many values rest on one well or one pass, so single values are uncertain.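 Imaging used 1,536-well plates; nuclei positive for cleaved PARP by antibody were divided by total DNA-stained nuclei to yield the apoptosis fraction. Doses for screening kept most cells viable, and cell lines differ markedly in resting and induced cleaved-PARP levels.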

What was measured:
Assay in all cases: cleaved PARP positive nuclei fraction relative to DMSO control; melanoma cells; higher = more apoptosis
Conditions in all cases: library dose: low library concentration; 72 h
MZ2-MEL = test system: MZ2-MEL
MeWo = test system: MeWo
RPMI7951 = test system: RPMI7951
RVH-421 = test system: RVH-421
SkMel28 = test system: SkMel28
SkMel2 = test system: SkMel2
SkMel30 = test system: SkMel30
SkMel5 = test system: SkMel5
UACC257 = test system: UACC257
UACC62 = test system: UACC62
WM115 = test system: WM115
WM1716 = test system: WM1716
WM1745 = test system: WM1745
WM3526 = test system: WM3526
WM3619 = test system: WM3619
WM451Lu = test system: WM451Lu

Structure (SMILES) | cleaved PARP positive nuclei fraction (MZ2-MEL) [%] | cleaved PARP positive nuclei fraction (MeWo) [%] | cleaved PARP positive nuclei fraction (RPMI7951) [%] | cleaved PARP positive nuclei fraction (RVH-421) [%] | cleaved PARP positive nuclei fraction (SkMel28) [%] | cleaved PARP positive nuclei fraction (SkMel2) [%] | cleaved PARP positive nuclei fraction (SkMel30) [%] | cleaved PARP positive nuclei fraction (SkMel5) [%] | cleaved PARP positive nuclei fraction (UACC257) [%] | cleaved PARP positive nuclei fraction (UACC62) [%] | cleaved PARP positive nuclei fraction (WM115) [%] | cleaved PARP positive nuclei fraction (WM1716) [%] | cleaved PARP positive nuclei fraction (WM1745) [%] | cleaved PARP positive nuclei fraction (WM3526) [%] | cleaved PARP positive nuclei fraction (WM3619) [%] | cleaved PARP positive nuclei fraction (WM451Lu) [%]
Cc1cn(-c2cc(NC(=O)c3ccc(C)c(Nc4nccc(-c5cccnc5)n4)c3)cc(C(F)(F)F)c2)cn1 [nilotinib] + Cc1cc([N+](=O)[O-])ccc1NS(=O)(=O)c1cc(Cl)ccc1Cl [FH535] (first compound 0.2 µM, partner dose 1 µM) | 72.9 | 16.2 | 138 | 65.3 | 126 | 131 | 53.4 | 93.8 | 125 | 84.7 | 42.9 | 29.3 | 88 | 174 | 89.3 | 34.1
CCCCCCCCCCCCCCCCCCOP(=O)([O-])OC1CC[N+](C)(C)CC1 [Perifosine] + NC(=O)Nc1cc(-c2cccc(F)c2)sc1C(=O)N[C@H]1CCCNC1 [AZD7762] (first compound 0.4 µM, partner dose 0.02 µM) | 97 | 60.7 | 163 | 98.5 | 51.4 | 130 | 56.5 | 231 | 110 | 79.1 | 198 | 225 | 80.6 | 63 | 163 | 254
O=c1[nH]nc(Sc2ncc([N+](=O)[O-])s2)n1-c1ccc2c(c1)OCCO2 + COc1ccc2c(c1)CCC1C2CCC2(C)C(NCCCCCCN3C(=O)C=CC3=O)CCC12 [U73122] (first compound 0.2 µM, partner dose 0.4 µM) | 336 | 65.6 | 33.1 | 39.3 | 58.3 | 112 | 152 | 37.6 | 113 | 101 | 113 | 57.7 | 94.4 | 161 | 121 | 57.9
O=c1[nH]nc(Sc2ncc([N+](=O)[O-])s2)n1-c1ccc2c(c1)OCCO2 + Cc1ccc(NC(=O)c2cccc(N(C)C)c2)cc1NC(=O)c1ccc(O)cc1 [ZM336372] (first compound 0.2 µM, partner dose 2 µM) | 83.1 | 146 | 55.8 | 107 | 18.9 | 103 | 255 | 75.4 | 104 | 107 | 74.9 | 81.1 | 94.2 | 115 | 113 | 188
N#CC[C@H](C1CCCC1)n1cc(-c2ncnc3[nH]ccc23)cn1 [ruxolitinib] + COc1cc2ncnc(Nc3ccc(Oc4ccccc4)cc3)c2cc1OC [SrcI1] (first compound 1 µM, partner dose 2 µM) | 47.2 | 146 | 145 | 148 | 176 | 14.9 | 108 | 60.1 | 42.2 | 106 | 96.1 | 36.3 | 106 | 80.2 | 89.8 | 122
Cc1cc(Nc2cc(N3CCN(C)CC3)nc(Sc3ccc(NC(=O)C4CC4)cc3)n2)n[nH]1 [Tozasertib] + O=C1NC(=O)/C(=C/c2ccc(-c3ccc(F)cc3O)o2)S1 [AS252424] (first compound 0.006 µM, partner dose 1 µM) | 175 | 258 | 28.3 | 116 | 51.7 | 44.6 | 76.4 | 149 | 150 | 109 | 107 | 164 | 106 | 90.7 | 117 | 219
Cc1ccc(Nc2nccc(N(C)c3ccc4c(C)n(C)nc4c3)n2)cc1S(N)(=O)=O [Pazopanib] + C[C@@H]1CCN(C(=O)CC#N)C[C@@H]1N(C)c1ncnc2[nH]ccc12 [CP690550] (first compound 0.4 µM, partner dose 1 µM) | 32.1 | 206 | 56.4 | 34.8 | 59.7 | 80.8 | 153 | 716 | 281 | 137 | 74.7 | 55.9 | 160 | 300 | 94 | 66.6
CCCCCCCCCCCCCCCCCCOP(=O)([O-])OC1CC[N+](C)(C)CC1 [Perifosine] + N#Cc1c(O)c2c(-c3ccc(-c4ccccc4O)cc3)csc2[nH]c1=O [A769662] (first compound 0.4 µM, partner dose 2 µM) | 122 | 128 | 111 | 52.6 | 178 | 56.8 | 188 | 77.8 | 85.6 | 120 | 88.9 | 73.1 | 94.8 | 86.3 | 112 | 71.5
N#CC[C@H](C1CCCC1)n1cc(-c2ncnc3[nH]ccc23)cn1 [ruxolitinib] + O=C1NC(=O)/C(=C/c2ccc(-c3ccc(F)cc3O)o2)S1 [AS252424] (first compound 1 µM, partner dose 1 µM) | 87.4 | 178 | 108 | 52.1 | 122 | 132 | 198 | 82.7 | 327 | 178 | 239 | 461 | 90.1 | 64.3 | 93.8 | 62.6
Cc1cn(-c2cc(NC(=O)c3ccc(C)c(Nc4nccc(-c5cccnc5)n4)c3)cc(C(F)(F)F)c2)cn1 [nilotinib] + CC(C)CCN1c2nc(Nc3cc(F)c(O)c(F)c3)ncc2N(C)C(=O)C1C [BID1870] (first compound 0.2 µM, partner dose 0.2 µM) | 43.1 | 349 | 33.7 | 161 | 191 | 200 | 196 | 76.9 | 153 | 185 | 153 | 24.5 | 103 | 70.7 | 81.8 | 130
Cc1cc(Nc2cc(N3CCN(C)CC3)nc(Sc3ccc(NC(=O)C4CC4)cc3)n2)n[nH]1 [Tozasertib] + Cn1cncc1[C@@](N)(c1ccc(Cl)cc1)c1ccc2c(c1)c(-c1cccc(Cl)c1)cc(=O)n2C [tipifarnib] (first compound 0.006 µM, partner dose 0.01 µM) | 62.1 | 105 | 218 | 29.3 | 40.5 | 131 | 50.3 | 107 | 66.4 | 72 | 203 | 57.8 | 99.6 | 56.9 | 96.9 | 97.6
O=c1[nH]nc(Sc2ncc([N+](=O)[O-])s2)n1-c1ccc2c(c1)OCCO2 + Oc1nc(-c2ccc(C(F)(F)F)cc2)nc2c1CSCC2 [XAV939] (first compound 0.2 µM, partner dose 2 µM) | 136 | 62.2 | 68.2 | 211 | 47.2 | 118 | 69.6 | 93.8 | 105 | 327 | 161 | 107 | 92.4 | 73.4 | 97.2 | 110
Cc1ccc(Nc2nccc(N(C)c3ccc4c(C)n(C)nc4c3)n2)cc1S(N)(=O)=O [Pazopanib] + Cn1cncc1[C@@](N)(c1ccc(Cl)cc1)c1ccc2c(c1)c(-c1cccc(Cl)c1)cc(=O)n2C [tipifarnib] (first compound 0.4 µM, partner dose 0.01 µM) | 28.7 | 69.4 | 127 | 45.9 | 35.8 | 59.2 | 152 | 91.2 | 197 | 272 | 88.3 | 176 | 99.3 | 80.9 | 97.2 | 77.7
O=c1[nH]nc(Sc2ncc([N+](=O)[O-])s2)n1-c1ccc2c(c1)OCCO2 + CO[C@@H]1[C@H](N(C)C(=O)c2ccccc2)C[C@H]2O[C@]1(C)n1c3ccccc3c3c4c(c5c6ccccc6n2c5c31)C(=O)NC4 [Midostaurin] (first compound 0.2 µM, partner dose 0.08 µM) | 43.5 | 71.2 | 137 | 130 | 187 | 39.8 | 28.2 | 17.4 | 369 | 249 | 149 | 177 | 96.9 | 30.6 | 92.8 | 29.9
N#CC[C@H](C1CCCC1)n1cc(-c2ncnc3[nH]ccc23)cn1 [ruxolitinib] + CCCCCCCCCCCC1=C(O)C(=O)C=C(O)C1=O [Embelin] (first compound 1 µM, partner dose 1.2 µM) | 40.3 | 115 | 27.9 | 48.8 | 136 | 20.5 | 25.8 | 147 | 65.3 | 115 | 62.9 | 49.3 | 200 | 70.1 | 91.7 | 82.8
CC[C@]1(O)C[C@H]2CN(CCc3c([nH]c4ccccc34)[C@@](C(=O)OC)(c3cc4c(cc3OC)N(C=O)[C@H]3[C@@](O)(C(=O)OC)[C@H](OC(C)=O)[C@]5(CC)C=CCN6CC[C@]43[C@@H]65)C2)C1 [vincristine] + Cn1cncc1[C@@](N)(c1ccc(Cl)cc1)c1ccc2c(c1)c(-c1cccc(Cl)c1)cc(=O)n2C [tipifarnib] (first compound 0.0001 µM, partner dose 0.01 µM) | 224 | 126 | 185 | 57 | 430 | 163 | 816 | 241 | 461 | 130 | 1850 | 309 | 120 | 100 | 143 | 133
CCCCCCCCCCCCCCCCCCOP(=O)([O-])OC1CC[N+](C)(C)CC1 [Perifosine] + c1cc(-c2cnn3cc(-c4ccc(OCCN5CCCCC5)cc4)cnc23)ccn1 [Dorsomorphin] (first compound 0.4 µM, partner dose 0.4 µM) | 63.2 | 69.9 | 89.3 | 230 | 67.9 | 57 | 45.3 | 285 | 21.7 | 68.9 | 121 | 208 | 222 | 117 | 1120 | 62.7
COc1cc([C@@H]2c3cc4c(cc3[C@@H](O[C@@H]3O[C@@H]5CO[C@@H](C)O[C@H]5[C@H](O)[C@H]3O)[C@H]3COC(=O)[C@H]23)OCO4)cc(OC)c1O [etoposide] + COc1cc(Nc2ncc(F)c(Nc3ccc4c(n3)NC(=O)C(C)(C)O4)n2)cc(OC)c1OC [Tamatinib] (first compound 0.02 µM, partner dose 0.4 µM) | 233 | 128 | 110 | 195 | 74.4 | 92.1 | 67.5 | 222 | 150 | 286 | 108 | 176 | 151 | 66.2 | 71.8 | 516

Looked up one by one from above:
Structure (SMILES) | cleaved PARP positive nuclei fraction (MZ2-MEL) [%] | cleaved PARP positive nuclei fraction (MeWo) [%] | cleaved PARP positive nuclei fraction (RPMI7951) [%] | cleaved PARP positive nuclei fraction (RVH-421) [%] | cleaved PARP positive nuclei fraction (SkMel28) [%] | cleaved PARP positive nuclei fraction (SkMel2) [%] | cleaved PARP positive nuclei fraction (SkMel30) [%] | cleaved PARP positive nuclei fraction (SkMel5) [%] | cleaved PARP positive nuclei fraction (UACC257) [%] | cleaved PARP positive nuclei fraction (UACC62) [%] | cleaved PARP positive nuclei fraction (WM115) [%] | cleaved PARP positive nuclei fraction (WM1716) [%] | cleaved PARP positive nuclei fraction (WM1745) [%] | cleaved PARP positive nuclei fraction (WM3526) [%] | cleaved PARP positive nuclei fraction (WM3619) [%] | cleaved PARP positive nuclei fraction (WM451Lu) [%]
Cc1cn(-c2cc(NC(=O)c3ccc(C)c(Nc4nccc(-c5cccnc5)n4)c3)cc(C(F)(F)F)c2)cn1 [nilotinib] + Cc1cc([N+](=O)[O-])ccc1NS(=O)(=O)c1cc(Cl)ccc1Cl [FH535] (first compound 0.2 µM, partner dose 1 µM) | 72.9 | 16.2 | 138 | 65.3 | 126 | 131 | 53.4 | 93.8 | 125 | 84.7 | 42.9 | 29.3 | 88 | 174 | 89.3 | 34.1
CCCCCCCCCCCCCCCCCCOP(=O)([O-])OC1CC[N+](C)(C)CC1 [Perifosine] + NC(=O)Nc1cc(-c2cccc(F)c2)sc1C(=O)N[C@H]1CCCNC1 [AZD7762] (first compound 0.4 µM, partner dose 0.02 µM) | 97 | 60.7 | 163 | 98.5 | 51.4 | 130 | 56.5 | 231 | 110 | 79.1 | 198 | 225 | 80.6 | 63 | 163 | 254
